# Out of some 310,000 compounds screened, about 17,000 (5.5%) were called active. Inconclusive results, whose numbers are uncertain, are shown with a selection of clear calls. Calls follow the shape of the dose curve; as a rule, active = well fitted inhibition curve with a large enough effect; inconclusive = small, poorly fitted or top-dose-only effect, or effect the other way; inactive = no such curve, though single readings can be large or run the other way. A potency beside an inconclusive call is a rough fit, not a confirmed value.
# Sequences of proteins named here, by UniProt entry; tags and fusion partners are left off. A change or cut given only in a name is not applied to a line headed by its entry.
# UniProt P51450: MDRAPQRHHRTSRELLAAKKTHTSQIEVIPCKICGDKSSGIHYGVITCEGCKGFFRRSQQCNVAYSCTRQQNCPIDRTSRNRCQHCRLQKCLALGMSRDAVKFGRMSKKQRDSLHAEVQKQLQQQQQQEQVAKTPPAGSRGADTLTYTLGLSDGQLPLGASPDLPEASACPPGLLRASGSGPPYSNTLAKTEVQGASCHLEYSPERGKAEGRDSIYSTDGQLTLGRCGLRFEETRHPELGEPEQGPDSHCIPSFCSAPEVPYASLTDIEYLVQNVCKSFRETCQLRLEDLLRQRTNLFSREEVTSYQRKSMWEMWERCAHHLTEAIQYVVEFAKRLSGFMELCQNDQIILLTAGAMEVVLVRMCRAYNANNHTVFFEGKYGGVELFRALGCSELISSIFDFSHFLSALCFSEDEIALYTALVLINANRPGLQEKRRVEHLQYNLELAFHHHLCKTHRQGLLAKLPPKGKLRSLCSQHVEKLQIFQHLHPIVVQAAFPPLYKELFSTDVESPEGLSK
# Biological target: Nuclear receptor ROR-gamma (Mus musculus) (UniProt P51450)
# Assay: qHTS for inhibitors of ROR gamma transcriptional activity; also: nearly all actives have a fitted effect of over 60% in size
# Details: Drosophila S2 Gal4-RORgamma UAS-luciferase reporter, 20 h; activity change, negative = inhibition: at 53.6 µM (top of the series)
# Method in brief: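 Drosophila S2 cells stably expressing Gal4-DBD/mouse RORγ fusion under metallothionein promoter plus UAS-luciferase; compound 1 h, then 700 uM CuSO4 induction for 20 h at ambient temperature; inhibition read as reduced luminescence.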
# % is scaled to controls: 0 for no effect and ±100 for the full control effect; potency is read from the fitted curve at half-maximal effect.
SMILES,Potency,"activity change, negative = inhibition"
Cc1ccc2nc(-c3ccc(NC(=O)COC(=O)c4cncc(Br)c4)cc3)sc2c1,active: 1.26 µM,
Cc1cc(=O)oc2cc(OCC(=O)N3CCN(C(=O)c4ccco4)CC3)ccc12,inactive,
O=C1CN(c2ccccc2)C(=S)N1C(=O)c1ccccc1,"inconclusive: 35.5 µM [inhibitor, single point]",
CCCCC(=O)Nc1cccc(-c2cn3ccccc3n2)c1,inactive,
CN1c2ccccc2C(O)=C(C(=S)Nc2ccccc2)S1(=O)=O,"inconclusive: 11.2 µM [inhibitor, single point]",
O=C(Nc1ccc(OC(F)(F)F)cc1)C1=NCCN1,"inconclusive: 15.8 µM [inhibitor, single point]",
Cc1ccnc2ccc(-c3nc4ccccc4o3)cc12,"inconclusive: 0.141 µM [inhibitor, single point]",
O=C1NC(=O)/C(=C/c2cccc3ccccc23)S1,"inconclusive: 12.6 µM [activator, single point]",
COc1ccc(/C=C/C(=O)NC(=S)Nc2ccc(S(=O)(=O)Nc3nccnc3OC)cc2)cc1,"inconclusive: 0.891 µM [activator, single point]",
CSc1ccc(-c2nnn(Cc3ccc(C)cc3)n2)cc1,"inconclusive: 5.01 µM [activator, full curve, poor fit]",
Cc1ccc(NC(=O)CSc2cn[nH]n2)cc1,"inconclusive: 0.562 µM [inhibitor, single point]",
COc1ccc(-n2c(Cc3cccn3C)nnc2SCC(=O)Nc2cc(Cl)ccc2OC)cc1,"inconclusive: 11.2 µM [activator, partial curve]",
CC(C)(C)c1cc[n+](/C(C(=S)NC2CC2)=C(/[O-])c2ccc(Cl)s2)cc1,"inconclusive: 14.1 µM [inhibitor, partial curve, poor fit]",
O=C(O)CCN1C(=O)/C(=C/c2ccc(-c3nc4ccccc4s3)o2)SC1=S,inactive,
Cc1ccc(C(=O)NC(=S)Nc2ccccc2C(F)(F)F)cc1C,active: 2.51 µM,
COc1ccc(OC)c(N/C=C/C(=O)c2ccc(OC)c(OC)c2)c1,"inconclusive: 5.62 µM [activator, single point]",
COc1ccc(-c2c(C)nn3c(NC4CCCC4)cc(C)nc23)cc1OC,inactive,
O=c1[nH]ccc2c(S(=O)(=O)N3CCCNCC3)cccc12,inactive,
Cc1ccc2c(c1)N(C(=O)c1ccco1)C(C)(C)c1ssc(=S)c1-2,inactive,
Cc1[nH]n(-c2nc(-c3cccc([N+](=O)[O-])c3)cs2)c(=O)c1C,"inconclusive: 35.5 µM [inhibitor, single point]",
CC(C)C(=O)Nc1cccc(C(=O)Nc2nnc(C(C)C)s2)c1,"inconclusive: 1.41 µM [activator, partial curve]",
Cc1ccc(/C=N/NC(=S)NC2CCCCC2)o1,active: 0.251 µM,
O=S(=O)(Nc1cccc(CCc2ccccn2)c1)c1ccc2ccccc2c1,active: 7.94 µM,
O=C1c2ccccc2C(=O)N1/N=C/c1ccc(O)c(O)c1,inactive,
O=C(c1cc(-c2cccs2)on1)N1CCc2ccccc2C1,"inconclusive: 1 µM [inhibitor, full curve, poor fit]",
CCNc1ccc(Br)cc(C(=O)/C=C/c2c(Cl)cccc2Cl)c1=O,active: 10 µM,

# Nothing new here: entries from further up.
SMILES,Potency,"activity change, negative = inhibition"
O=C(Nc1ccc(OC(F)(F)F)cc1)C1=NCCN1,"inconclusive: 15.8 µM [inhibitor, single point]",
Cc1ccnc2ccc(-c3nc4ccccc4o3)cc12,"inconclusive: 0.141 µM [inhibitor, single point]",
O=C1NC(=O)/C(=C/c2cccc3ccccc23)S1,"inconclusive: 12.6 µM [activator, single point]",
COc1ccc(/C=C/C(=O)NC(=S)Nc2ccc(S(=O)(=O)Nc3nccnc3OC)cc2)cc1,"inconclusive: 0.891 µM [activator, single point]",

# The listing continues:

SMILES,Potency,"activity change, negative = inhibition"
CN1CCN(CCC(=O)N/N=C/c2ccccn2)CC1,"inconclusive: 2.51 µM [inhibitor, single point]",
COCCn1c(=O)c(-c2cccc(C#N)c2)nc2cnc(N3CCOCC3)nc21,inactive,
CN(C)/C=C1\N=C(c2ccccc2)OC1=O,"inconclusive: 12.6 µM [activator, single point]",
O=C(N/C=C/c1ccco1)Nc1cccc(Cl)c1,inactive,
Cc1c(Cl)c([N+](=O)[O-])nn1CC(=O)N1CCc2ccccc2C1,"inconclusive: 11.2 µM [activator, partial curve]",
O=C(NC(=S)Nc1ccc(N2CCCCC2)c(Cl)c1)c1ccc2c(c1)OCCO2,active: 3.16 µM,
O=C(O)c1ccc(Nc2ccc(Cl)c(Cl)c2)c([N+](=O)[O-])c1,inactive,
Fc1ccc(/C=N/NC(=S)Nc2ccc(Cl)cc2Cl)cc1,"inconclusive: 0.708 µM [inhibitor, full curve, poor fit]",
O=C(COc1ccc2ccccc2c1)Nc1ccccc1C(=O)O,inactive,
COc1cc(/C=C/C(=O)NCc2nc3ccccc3[nH]2)cc(OC)c1OC,inactive,
CCn1c(O)c(C=NC2CCCC2)sc1=S,"inconclusive: 25.1 µM [activator, single point]",
O=C(Cn1cc(SCc2ccc(F)cc2)c2ccccc21)N1CCOCC1,"inconclusive: 10 µM [activator, partial curve]",
O=C(/C=C/c1ccc(Cl)cc1)N(Cc1cccs1)C1CCS(=O)(=O)C1 (stereo not drawn),"inconclusive: 5.01 µM [activator, partial curve]",
Cc1cc(NC(=O)Nc2ccc(N(C)C)cc2)c2cc(F)cc(F)c2n1,"inconclusive: 10 µM [activator, full curve]",
O=C(NCCS(=O)c1ccc(Cl)cc1)c1cccc(Cl)c1 (stereo not drawn),inactive,
Cc1c(Br)c([N+](=O)[O-])nn1CC(=O)Nc1ccc(C(C)C)cc1,"inconclusive: 35.5 µM [inhibitor, single point]",
Cc1cc(C)c2cc(CN(CCN3CCCC3)C(=O)Nc3ccc(F)cc3)c(=O)[nH]c2c1,inactive,
CC(C)CC(/C(O)=C(\C#N)c1nc2ccccc2[nH]1)N1C(=O)c2ccccc2C1=O (stereo not drawn),active: 7.94 µM,
O=C(NCCc1c[nH]c2ccccc12)C(=O)NCC1OCCN1S(=O)(=O)c1ccc(Cl)cc1 (stereo not drawn),"inconclusive: 22.4 µM [activator, partial curve]",
CN(C1=NS(=O)(=O)c2ccccc21)c1ccc(OC(=O)c2ccccc2)cc1,inactive,
Cc1ccc(NC(=S)NCCC2=CCCCC2)cc1,active: 5.62 µM,
CCOC(=O)C1(CCCc2ccccc2)CCN(Cc2cn(CC)nc2C)CC1,inactive,
Cc1nn(-c2ccccc2)c(N2CCCCC2)c1/C=N/NC(=O)c1ccncc1,"inconclusive: 35.5 µM [inhibitor, single point]",
NS(=O)(=O)c1cccc(NC(=O)COc2ncnc3c2cnn3-c2ccccc2)c1,inactive,
CC(C)c1nnc(NC(=O)c2nc(S(=O)(=O)Cc3ccccc3)ncc2Cl)s1,active: 22.4 µM,
Cc1ccc(CNC(=O)CN2CCCC(C)C2)cc1 (stereo not drawn),"inconclusive: 35.5 µM [inhibitor, single point]",

SMILES,Potency,"activity change, negative = inhibition"
CCOc1ccc2oc(=O)cc(CN3CCOCC3)c2c1,inactive,
CCOC(=O)c1[nH]c2c(c1C)C(=O)CC(c1ccc(F)cc1)C2 (stereo not drawn),"inconclusive: 8.91 µM [activator, partial curve]",
CCOc1ccc(NC(=O)CN2CCN(CC(=O)Nc3cccc(F)c3)CC2)cc1,inactive,
O=C(NC(=S)Nc1nc2c(ccc3ccccc32)s1)c1cccs1,active: 2.51 µM,
CCCCCn1c(N)c(C#N)c2nc3ccccc3nc21,"inconclusive: 3.55 µM [inhibitor, partial curve]",
Cc1cc(Cl)ccc1OCC(=O)NC(=S)Nc1ccc(Cl)cn1,active: 5.62 µM,
CCOc1ccccc1C1N(c2ccc(OC)cc2)C(=O)C2CCCN21 (stereo not drawn),"inconclusive: 20 µM [inhibitor, single point]",
CNC(=S)NC1(C)CCS(=O)(=O)C1 (stereo not drawn),inactive,
COc1ccc(C)cc1-n1c(-c2ccncc2)n[nH]c1=S,inactive,
COc1cccc(CNC(=O)Cc2ccc(-c3ccccc3)cc2)c1,inactive,
O=C(N/N=C/c1ccc[nH]1)c1cc(-c2cccs2)nc2ccccc12,active: 2.82 µM,
COc1ccc(S(=O)(=O)N2CCCC(C(=O)Nc3ccc(NC(=O)c4ccccn4)cc3)C2)cc1 (stereo not drawn),"inconclusive: 11.2 µM [activator, partial curve]",
c1ccc(-c2c3ccccc3nc3[nH]c4ccccc4c23)cc1,active: 11.2 µM,
COc1ccccc1CNc1cc(-c2c(C)noc2C)ncn1,inactive,
Cn1c(N2CCN(S(=O)(=O)c3ccc(Cl)cc3)CC2)nc2ccccc21,inactive,
CCCc1noc2c1/C(=N\O)CCC2,"inconclusive: 35.5 µM [activator, single point]",
Cc1ccc(C2C3=C(CCCC3=O)N=C3c4ccccc4C(=O)C32)cc1 (stereo not drawn),inactive,
CCCC(=O)Nc1ccccc1-c1nnn(CC(=O)Nc2ccc(OCC)cc2)n1,"inconclusive: 15.8 µM [activator, single point]",
CCCCCCn1c(=O)[nH]c2nc3cc(N)ccc3nc2c1=O,"inconclusive: 12.6 µM [activator, partial curve, poor fit]",
C=CCC(C#Cc1ccccc1)N(C)C (stereo not drawn),,inactive: -5.04% [at 10 µM]
NS(=O)(=O)c1ccc(CCNC(=O)C2COc3ccccc3O2)cc1 (stereo not drawn),"inconclusive: 6.31 µM [inhibitor, single point]",
COc1ccc(S(=O)(=O)N2c3ccccc3OCC2C(C)(C)C)cc1 (stereo not drawn),inactive,
COc1cccc(CN(C(=O)c2cc3ccccc3oc2=O)C2CC2)c1,"inconclusive: 3.55 µM [activator, partial curve]",
CCOC(=O)C(=Cc1c[nH]c2ccc(S(=O)(=O)N(C)C)cc12)C(=O)OCC,"inconclusive: 22.4 µM [inhibitor, single point]",
c1coc(-c2nnc(NC3=NCCC3)o2)c1,"inconclusive: 12.6 µM [inhibitor, single point]",
O=C(CSc1nnnn1-c1cccc2c1CCCC2)N1CCCCC1,"inconclusive: 1.41 µM [activator, full curve]",

# Source: PubChem BioAssay AID2551 (National Center for Advancing Translational Sciences (NCATS), 2010)
